Assay [1] deals with glutamate transporter GLT-1 (rat (endogenous in adult rat brain)) (UniProt P31596). The assay is described as follows: co-IP; adult rat brain lysate (150 mM NaCl, 1 mM EDTA, 100 mM Tris HCl pH 7.4, 1% Triton X-100, 1% Na deoxycholate), 4°C; precipitated with anti-GLAST or anti-GLT-1 antibody and protein-G agarose, rabbit IgG as control; immunoblot for Na,K-ATPase α1 and α2. In general terms: In western blotting, separated proteins are transferred to a membrane and probed.

Protein sequences, listed by entry. Tags and fused reporters are not part of them.
UniProt P31596: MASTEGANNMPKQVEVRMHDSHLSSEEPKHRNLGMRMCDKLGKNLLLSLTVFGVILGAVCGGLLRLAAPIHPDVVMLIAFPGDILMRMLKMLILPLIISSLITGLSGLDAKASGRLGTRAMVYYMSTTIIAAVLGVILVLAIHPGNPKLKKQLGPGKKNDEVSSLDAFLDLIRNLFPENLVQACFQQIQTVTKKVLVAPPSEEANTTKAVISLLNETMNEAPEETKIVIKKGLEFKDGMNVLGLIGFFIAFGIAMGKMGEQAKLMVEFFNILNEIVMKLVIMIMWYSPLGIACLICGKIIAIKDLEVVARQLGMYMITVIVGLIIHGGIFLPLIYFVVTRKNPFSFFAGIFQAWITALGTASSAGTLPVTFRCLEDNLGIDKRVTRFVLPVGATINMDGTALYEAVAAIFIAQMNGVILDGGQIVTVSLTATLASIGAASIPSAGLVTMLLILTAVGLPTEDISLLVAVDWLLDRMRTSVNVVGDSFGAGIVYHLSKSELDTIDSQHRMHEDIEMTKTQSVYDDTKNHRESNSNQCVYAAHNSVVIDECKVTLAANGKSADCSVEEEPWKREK

Assay [2] concerns the target T1, glutamate/Na+ co-transporter GLAST (rat (endogenous in adult rat brain)) (UniProt P24942).
T1 sequence: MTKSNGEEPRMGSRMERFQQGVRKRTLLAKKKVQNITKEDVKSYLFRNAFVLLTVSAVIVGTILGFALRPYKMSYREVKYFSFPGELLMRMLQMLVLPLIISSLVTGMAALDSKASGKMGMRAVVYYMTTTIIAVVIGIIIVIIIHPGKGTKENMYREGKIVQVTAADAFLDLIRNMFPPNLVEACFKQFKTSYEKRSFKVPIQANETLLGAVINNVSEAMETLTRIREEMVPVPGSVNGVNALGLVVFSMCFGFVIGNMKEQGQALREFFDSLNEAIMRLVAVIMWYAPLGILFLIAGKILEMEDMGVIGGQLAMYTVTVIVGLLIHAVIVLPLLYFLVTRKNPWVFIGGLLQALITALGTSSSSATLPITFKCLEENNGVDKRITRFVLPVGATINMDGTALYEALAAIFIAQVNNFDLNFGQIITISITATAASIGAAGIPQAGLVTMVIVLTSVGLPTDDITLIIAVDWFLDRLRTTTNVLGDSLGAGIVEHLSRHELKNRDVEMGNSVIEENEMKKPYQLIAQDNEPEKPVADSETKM
Described as above.

These are yes or no findings as the source states them, for the method shown. Binding seen in cells or lysates may run through a third protein. Some binding calls cover weakened binding; strength is not graded here.

Regarding “Na,K-ATPase α2 subunit (from UniProt P06686 1-1020)”, the binding result in assay [1] and in assay [2] was “binds” throughout.

Values taken from PMC4046997.
